Results are given in words; binding and its absence hold for the method and conditions named. Binding seen in cells or lysates may run through a third protein. Some entries that bind do so weakly or less than the wild type.
Key:
[1] = molecular target: HA‐tagged GALNT16 (polypeptide N‐acetylgalactosaminyltransferase 16) (UniProt Q8N428); assay: co-IP; HepG2 and PLC/PRF/5 cells transfected with GALNT16‐HA and PD‐L1‐Flag for 48 h; lysates incubated with FLAG‐ or HA‐conjugated magnetic beads at room temperature for 2 h; anti‐Flag immunoprecipitates blotted for HA, anti‐HA immunoprecipitates blotted for Flag
[2] = molecular target: Flag‐tagged PD‐L1 (programmed death ligand‐1), wild type (UniProt Q9NZQ7); assay: as above

By UniProt entry, the sequences of proteins in these tests, tags left out. Residues count along the entry.
UniProt Q8N428: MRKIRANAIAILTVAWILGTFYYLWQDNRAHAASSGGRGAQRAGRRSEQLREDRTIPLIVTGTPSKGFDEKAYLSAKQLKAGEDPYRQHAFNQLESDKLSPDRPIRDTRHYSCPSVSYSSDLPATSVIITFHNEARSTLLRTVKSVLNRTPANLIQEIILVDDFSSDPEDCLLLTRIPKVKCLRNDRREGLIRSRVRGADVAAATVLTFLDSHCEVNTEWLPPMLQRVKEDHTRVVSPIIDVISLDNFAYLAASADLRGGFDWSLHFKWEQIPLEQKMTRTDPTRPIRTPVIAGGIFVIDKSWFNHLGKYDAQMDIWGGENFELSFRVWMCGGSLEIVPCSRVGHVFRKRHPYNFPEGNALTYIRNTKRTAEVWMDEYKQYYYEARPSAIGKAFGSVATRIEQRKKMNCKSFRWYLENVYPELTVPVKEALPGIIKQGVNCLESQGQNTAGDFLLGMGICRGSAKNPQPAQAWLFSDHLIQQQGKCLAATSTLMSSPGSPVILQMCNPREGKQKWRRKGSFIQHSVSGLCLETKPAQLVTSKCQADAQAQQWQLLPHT
UniProt Q9NZQ7, residues 19-290: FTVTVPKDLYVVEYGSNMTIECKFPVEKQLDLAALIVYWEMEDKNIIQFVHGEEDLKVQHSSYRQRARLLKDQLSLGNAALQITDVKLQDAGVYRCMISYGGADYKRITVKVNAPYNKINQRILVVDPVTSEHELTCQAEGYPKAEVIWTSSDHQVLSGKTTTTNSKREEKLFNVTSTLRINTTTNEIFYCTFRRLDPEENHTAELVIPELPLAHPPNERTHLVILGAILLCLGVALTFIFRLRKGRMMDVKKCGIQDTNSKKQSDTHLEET

| Substance | binding [1] | binding [2] |
| --- | --- | --- |
| Flag‐tagged PD‐L1 (programmed death ligand‐1), wild type (from UniProt Q9NZQ7 19-290) | binds | – |
| HA‐tagged GALNT16 (polypeptide N‐acetylgalactosaminyltransferase 16) (from UniProt Q8N428 1-558) (enzyme) | – | binds |
